According to patent US20240350678A1, “SYSTEMS AND METHODS FOR GENERATION OF HYPERPOLARIZED MATERIALS” (NVISION IMAGING TECHNOLOGIES GMBH, priority 2021, published 2024):

Assay: Parahydrogen hydrogenation (PHIP-SAH), polarization transfer, hyperpolarized 13C NMR
Details: 10 seconds

Row | Compound | polarization of the thiopyruvate-C-1 (after parahydrogen hydrogenation in acetone-d6, starting concentration 60 mM, 6 mM Rh(dppb)(COD)BF4, 50° C./10 bar, 13C signal at 161.02 ppm) [%] | polarization of thiopyruvate-C-2 (after parahydrogen hydrogenation in acetone-d6, starting concentration 60 mM, 6 mM Rh(dppb)(COD)BF4, 50° C./10 bar, 13C signal at 190.80 ppm) [%] | polarization of the ester group in the side-arm (after parahydrogen hydrogenation in acetone-d6, starting concentration 110 mM, 3 mM Rh(dppb)(COD)BF4, 50° C./10 bar, 13C signal at 165.48 ppm) [%] | polarization of the thiopyruvate-C-1 (after parahydrogen hydrogenation in acetone-d6, starting concentration 110 mM, 3 mM Rh(dppb)(COD)BF4, 50° C./10 bar, 13C signal at 194.69 ppm) [%]
1 | CC(=O)C(=O)SCC#Cc1ccccc1 [S-(3-phenylprop-2-yn-1-yl) 2-oxopropanethioate] | 4.3 | 4.0 |  | 
2 | CC(=O)C(=O)SCC#CC(=O)OC(C)(C)C [tert-butyl 4-((2-oxopropanoyl)thio)but-2-ynoate] |  |  | 10.7 | 7.7
